Source: patent publication US5602230A (Centocor, Inc., priority 1995, dated 1997)

Test: general procedure: Boc solid-phase peptide synthesis; 4-methyl benzhydrylamine resin
Conditions: whole synthesis, scale 0.5 mmol
In the case of DLVAIQNKNE-NH2, the crude mass is reported as 789 mg.
In the case of LVAIQNKNE-NH2, the crude mass is reported as 450 mg.
For Nif-Thr-Asp-Leu-Val-Ala-Ile-Gln-NH2, the crude mass was 381 mg.
Substance PEPTIDE1{R.Y.T.D.L.V.A.I.[am]}$$$$V2.0 has a crude mass of 651 mg.
PEPTIDE1{Y.T.D.L.V.A.I.[am]}$$$$V2.0 gave a crude mass of 317 mg.
Substance TDLVAIQ-NH2 has a crude mass of 615 mg.
Work on TDLVAIQNKNE-NH2 yielded a crude mass of 1171 mg.

Some peptides are written in HELM: one residue between dots, names in brackets for other building blocks, links after the first $. Where no end group is shown, it is not given here.
